According to patent US20250122267A1:
Results are given in words; binding and its absence hold for the method and conditions named. Some results given as binding are weak or reduced against the parent protein; the word gives no strength. Where a sequence is shown, tags or fusion partners need not be part of it.

Sequences of proteins named here, by UniProt entry; tags and fusion partners are left off. Residues count along the entry.
UniProt P54831, residues 279-390: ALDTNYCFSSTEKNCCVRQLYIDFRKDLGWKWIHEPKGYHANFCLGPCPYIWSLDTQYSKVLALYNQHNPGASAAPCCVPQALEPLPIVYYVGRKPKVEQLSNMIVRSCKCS

Key:
[1] = molecular target: natural dog TGFb1 in dog serum (dog) (UniProt P54831); assay: in vitro ELISA for TGFb1; supernatant of transfected 293-Hek cells mixed with dog serum containing natural dog TGFb1; bound TGFb1 is not detected
[2] = molecular target: natural dog TGFb1 in dog serum (dog) (UniProt P54831); assay: in vitro ELISA for TGFb1; supernatant of transfected 293-Hek cells mixed with dog serum; bound TGFb1 is not detected

B1: dog-stgfbr2-fc modified to include the mouse/human secretion signal (Fc fusion)
chain: TNNDMMVTDSNGVIKFPQLCKFCDVRSSTCDNQKSCMSNCSITSICEKPHEVCLAVWRKNDENITLETLCHDPKDTYHGIVLEDAASSKCIMKEKKVLGETFFMCSCSSDECNDYIIFSEEYATNNPDLLLVIFQPKRENGRVPRPPDCPKCPAPEMLGGPSVFIFPPKPKDTLLIARTPEVTCVVVDLDPEDPEVQISWFVDGKQMQTAKTQPREEQFNGTYRVVSVLPIGHQDWLKGKQFTCKVNNKALPSPIERTISKARGQAHQPSVYVLPPSREELSKNTVSLTCLIKDFFPPDIDVEWQSNGQQEPESKYRTTPPQLDEDGSYFLYSKLSVDKSRWQRGDTFICAVMHEALHNHYTQESLSHSPGKGGSGGSDYKDHDGDYKDHDIDYKDDDDK
[1]
  binding: binds
[2]
  binding: binds
